Measured values as given in paper PMC3979138.
These are yes or no findings as the source states them, for the method shown. Binding seen in cells or lysates may run through a third protein. Some binding calls cover weakened binding; strength is not graded here.

Target: T1, Endothelial protein C receptor (human (endogenous in RASFs)) (UniProt Q9UNN8)
T1 sequence: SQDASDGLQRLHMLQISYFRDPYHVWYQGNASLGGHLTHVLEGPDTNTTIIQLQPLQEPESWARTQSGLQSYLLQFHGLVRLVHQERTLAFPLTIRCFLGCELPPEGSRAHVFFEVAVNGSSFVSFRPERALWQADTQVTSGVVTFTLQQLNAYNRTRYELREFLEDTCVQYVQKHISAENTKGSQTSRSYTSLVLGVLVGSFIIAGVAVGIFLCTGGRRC
Assay: co-IP; RASF lysates (20 mM HEPES, 1% Triton X, 10% glycerol, protease and phosphate inhibitors); immunoprecipitation with anti-human EPCR antibody and A/G Plus-agarose; Western blot with anti-EPCR, then anti-sPLA2V antibody on the same membrane, non-reducing conditions

B1: Group V secretory phospholipase A2 (enzyme, UniProt P39877 21-138)
chain: GLLDLKSMIEKVTGKNALTNYGFYGCYCGWGGRGTPKDGTDWCCWAHDHCYGRLEEKGCNIRTQSYKYRFAWGVVTCEPGPFCHVNLCACDRKLVYCLKRNLRSYNPQYQYFPNILCS
B1 was tested, and the binding was “binds”.
